Laboratory results published in US20170371042A1, “CONTRAST AGENT FOR OPTICAL IMAGING, USE THEREOF AND APPARATUS USING THE SAME” (KYUNGPOOK NATIONAL UNIVERSITY INDUSTRY- ACADEMIC …, priority 2009, published 2017).
“Also recorded” adds a separate entry of the source. Some compounds share one wording; it may come from a single statement.

Columns and labels:
[1] = Comparison of luminescence intensities between [^18F]FDG and free [^18F]KF ion (luminometer); type: physicochemical; conditions: similar radioactivity in 300 μL aqueous solution, in vitro luminometer
[2] = In vitro luminescence imaging (IVIS 200) of radionuclide solutions in 96-well plate; type: physicochemical; conditions: for luminescence signal strength among five radioisotopes (IVIS 200 image): 96-well plate, 300 μL aqueous solution, similar activity concentrations, 1 minute scan; for Relative intensity (IVIS200): values in parentheses, calculated from IVIS 200 data, ^131I = 1; for activity concentration at which light was detected by luminescence imaging: 300 μL of water, ^68Ga detected clearly up to this, ^99mTc only very faint light at this
[3] = In vitro luminometric assay of radionuclide solutions; type: physicochemical; conditions: for Relative intensity (in vitro luminometer): luminescence signal of ^131I set to 1, slope of line of best fit, 470 nm; for increase in light signal with increasing activity: in vitro luminometer, consecutively diluted concentrations
[4] = Spatial resolution of Cerenkov imaging with Derenzo phantom; type: physicochemical; conditions: 32 μCi/mL ^124I solution
[5] = Tissue penetration of Cerenkov imaging, injection into back muscle; type: in vivo, Sprague-Dawley rats

In the case of `[18F-].[K+]` [[^18F]KF], the “difference in luminescence between chemical forms” value [1] is reported as “no significant difference in luminescence”.
In the case of `OC[C@H]1OC(O)[C@H]([18F])[C@@H](O)[C@@H]1O` (stereo partly drawn) [^18F, [^18F]FDG], the “luminescence signal strength among five radioisotopes (IVIS 200 image)” value [2] is reported as “third strongest luminescence signals”, the “Relative intensity (IVIS200)” value [2] is reported as “(1.7)” and the “Relative intensity (in vitro luminometer)” value [3] is reported as 2.0. For the same molecule, the “difference in luminescence between chemical forms” value [1] was “no significant difference in luminescence”.
With `CSCC[C@H](N)C(=O)O` [^35S, [^35S]methionine] the “increase in light signal with increasing activity” value (from here on “increase in light signal”) [3] was “much slower increase in light signal; also recorded: did not show any noticeable increase in luminescence even at the highest activity” and the “Relative intensity (in vitro luminometer)” value [3] was 0.02.
With `[64Cu+2].[Cl-].[Cl-]` [^64Cu, [^64Cu]CuCl2] the “Relative intensity (in vitro luminometer)” value [3] was 0.8.
For `[68Ga+3].[Cl-].[Cl-].[Cl-]` [^68Ga, [^68Ga]GaCl3], the “activity concentration at which light was detected by luminescence imaging” value [2] was 0.5 μCi/mL, the “relative intensity of ^68Ga versus ^124I” value ([2]; ratio of relative luminescence intensities) was “more than 4 times” and the “Relative intensity (IVIS200)” value [2] was “(24.2)”.
For `[Cl][111In]([Cl])[Cl]` [^111In, [^111In]InCl3], the “increase in light signal” value [3] was “much slower increase in light signal” and the “Relative intensity (in vitro luminometer)” value [3] was 0.1.
For `[124I-].[Na+]` [^124I, [^124I]NaI], the “luminescence signal strength among five radioisotopes (IVIS 200 image)” value [2] was “second”, the “Relative intensity (IVIS200)” value [2] was “(6.2)” and the “Relative intensity (in vitro luminometer)” value [3] was 5.1. For the same molecule, the “spatial resolution, Cerenkov imaging, each source clearly identified” value ([4]; 1 minute) was 1.6 mm, the “spatial resolution, Cerenkov imaging, some sources separated from nearby sources” value ([4]; 1 minute) was 1.2 mm and the “maximum spatial resolution, microPET imaging” value ([4]; 20 minutes) was 2.4 mm. For the same molecule, the “lowest concentration detected by Cerenkov luminescence” value ([5]; 10 μL injected at depth of 4 mm, imaging 1 minute) was 0.3 μCi/μL, the “minimum activity for detection by Cerenkov luminescence” value ([5]; 10 μL injected at depth of 7 mm, scan time 1 min) was 1 μCi/μL and the “lowest concentration detected by Cerenkov luminescence” value ([5]; depth of 4 mm, longer scan time) was 0.1 μCi/μL.
For `[131I-].[Na+]` [^131I, [^131I]NaI], the “luminescence signal strength among five radioisotopes (IVIS 200 image)” value [2] was “sufficiently detectable light signal”, the “Relative intensity (IVIS200)” value [2] was “(1)” and the “Relative intensity (in vitro luminometer)” value [3] was 1.
For [^99mTc]TcO4^−, the “luminescence signal strength among five radioisotopes (IVIS 200 image)” value [2] was “did not show any detectable light signal”, the “activity concentration at which light was detected by luminescence imaging” value [2] was 2.9×10^3 μCi/mL and the “only concentration that emitted very faint light” value ([2]; sequentially diluted solutions, 300 μL/well, 5 minutes) was 2.9 mCi/mL. For the same molecule, the “increase in light signal” value [3] was “much slower increase in light signal” and the “Relative intensity (in vitro luminometer)” value [3] was 0.04.
